Values from PubChem BioAssay AID504784 (Drosophila RNAi Screening Center, 2011)

- Assay: 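Fly genes whose silencing alters how much lipid cells keep in droplets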 (primary screen)
- Cell system: Drosophila Kc167 embryonic cells
- Reagents: long dsRNA against Drosophila genes, about 250 ng dsRNA per well
- Timing: 4 days
- Challenge: cells fed 400 µM oleic acid bound to BSA
- Measurement: 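Cells imaged and segmented; ratio of lipid droplet area to nuclear area, log-transformed, then normalised as a B-score over the screen; higher means more stored lipid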
- Reading the numbers: droplet/nuclear area B-score: higher = more stored lipid (overstorage)
In all, the deposit lists about 17,000 reagents; this is a random part of those that have a named target and a result. 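Each column is one replicate's B-score; the combined score over replicates was not deposited, so single values may mislead.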 Names joined by + are all predicted targets of the reagent.

gene | DRSC id | droplet/nuclear area B-score, replicate 1 | droplet/nuclear area B-score, replicate 2 | droplet/nuclear area B-score, replicate 3
Ip6k (GeneID 37465) | DRSC04054 | -2.71 | -0.0195 | –
eEF1alpha1 (GeneID 36271) | DRSC07421 | 2.61 | 0.693 | –
Prm (GeneID 39002) | DRSC08941 | 0.632 | 1.79 | –
Prm (GeneID 39002) | DRSC08942 | -0.587 | -1.16 | –
Prm (GeneID 39002) | DRSC11255 | 0.635 | 0.496 | –
Lamtor4 (GeneID 38454) | DRSC08436 | 0.382 | -0.723 | –
CG7164 (GeneID 34061) | DRSC03018 | -1.36 | 0.015 | –
Leash (GeneID 41320) | DRSC15617 | -1.01 | -0.444 | –
Arpc3A (GeneID 41917) | DRSC15596 | 0.0224 | -0.755 | –
CG12948 (GeneID 41187) | DRSC14576 | 0.277 | 0.915 | –
CG7745 (GeneID 36210) | DRSC07037 | 0.164 | -5.44 | –
CG7745 (GeneID 36210) | DRSC23103 | -2.54 | -0.384 | –
ND-51 (GeneID 33852) | DRSC03145 | 2.06 | 7.61 | –
CG42361 (GeneID 37936) | DRSC04391 | -0.334 | 1.34 | –
CG7304 (GeneID 39713) | DRSC10804 | 0.122 | 0.903 | –
CG11275 (GeneID 37534) | DRSC04095 | -1.49 | -0.987 | –
CG13901 (GeneID 38095) | DRSC08371 | 0.874 | -0.553 | –
glec (GeneID 42571) | DRSC16958 | 1.81 | 0.111 | –
CG1246 (GeneID 38330) | DRSC08275 | -1.4 | 1.61 | –
bor (GeneID 53565) | DRSC16915 | -2.93 | -0.685 | –
CG1607 (GeneID 43707) | DRSC15130 | -0.643 | – | –
CG14852 (GeneID 41765) | DRSC14976 | -1.24 | -1.41 | –
RpL30 (GeneID 44059) | DRSC02087 | 4.5 | 7.16 | –
mh (GeneID 32480) | DRSC20168 | 0.572 | 0.561 | –
flz (GeneID 35902) | DRSC07109 | -0.933 | 2.84 | –
LIMK1 (GeneID 32207) | DRSC19811 | -0.617 | 1.64 | 0.23
COX6AL2 (GeneID 40066) | DRSC10082 | -0.657 | -0.576 | –
Liprin-gamma (GeneID 37552) | DRSC04093 | 1.15 | 0.235 | –
CG14839 (GeneID 41736) | DRSC14963 | -0.523 | -0.558 | 0.667
CG13449 (GeneID 39695) | DRSC09996 | -0.107 | -0.845 | –
Vha16-4 + CG15614 | DRSC07321 | 0.0273 | -0.196 | –
CROT (GeneID 43332) | DRSC14518 | -4.77 | -0.688 | –
CROT (GeneID 43332) | DRSC14519 | -0.256 | 0.193 | –
Rrp47 (GeneID 32558) | DRSC20124 | 4.13 | 0.933 | –
CG32199 (GeneID 40028) | DRSC09990 | 0.466 | -0.492 | –
Spindly (GeneID 33578) | DRSC00430 | 0.724 | 1.63 | –
S1P (GeneID 40399) | DRSC11810 | 0.234 | -0.342 | –
CG3040 (GeneID 31642) | DRSC22486 | 0.0841 | -0.382 | –
Kpc1 (GeneID 41826) | DRSC16107 | -0.161 | -0.00624 | –
Vps36 (GeneID 39523) | DRSC09785 | -1.47 | -2.03 | –
CG14591 (GeneID 35531) | DRSC04868 | 1.48 | -0.26 | –
Apt1 (GeneID 59176) | DRSC10348 | 0.722 | 0.444 | –
CG11241 (GeneID 40492) | DRSC11641 | 0.989 | 3.97 | -0.556
CG11241 (GeneID 40492) | DRSC22165 | -0.148 | -0.756 | –
RpL10Aa (GeneID 41811) | DRSC15518 | 3.61 | 3.42 | –
Flacc (GeneID 32886) | DRSC20040 | 1.21 | 0.584 | –
CG31525 (GeneID 318782) | DRSC12004 | -0.0281 | -0.0687 | –
Mvb12 (GeneID 32791) | DRSC20027 | 0.909 | -0.527 | –
Obp56h (GeneID 37271) | DRSC06433 | -0.0736 | 1.93 | –
NijA (GeneID 39215) | DRSC10637 | -0.428 | -2.54 | –
GstD4 (GeneID 48337) | DRSC16685 | -1.02 | -0.771 | –
Zcchc7 (GeneID 39883) | DRSC11099 | -0.927 | 0.307 | -1.39
Gba1b (GeneID 318721) | DRSC21531 | 0.0204 | -0.0133 | –
f (GeneID 32718) | DRSC19174 | -0.673 | -1.82 | –
f (GeneID 32718) | DRSC19516 | 0.0675 | 2.57 | –
f (GeneID 32718) | DRSC20331 | -1.1 | 0.514 | –
CG10089 (GeneID 39517) | DRSC09694 | -1.47 | -0.643 | –
CG10089 (GeneID 39517) | DRSC09695 | -1 | -0.762 | –
CG1894 (GeneID 43378) | DRSC15396 | -0.0828 | 1.01 | –
meep (GeneID 261663) | DRSC07948 | -0.917 | -0.146 | –
ECSIT (GeneID 40732) | DRSC12348 | -0.852 | -0.569 | –
CG8149 (GeneID 41137) | DRSC16391 | -0.223 | 0.22 | –
CG30109 + CG30108 | DRSC05674 | -0.32 | 0.0732 | –
Cpr65Ax2 + Cpr65Ax1 | DRSC10341 | -0.219 | -0.411 | –
Cpr65Ax2 + Cpr65Ax1 | DRSC10344 | 0.637 | -0.478 | –
Elp5 (GeneID 38287) | DRSC08547 | -0.0946 | 0.716 | –
park + Targ3 | DRSC11617 | -0.536 | 1.86 | 1.6
LPCAT (GeneID 31899) | DRSC18157 | -0.18 | -0.487 | 0.81
LPCAT (GeneID 31899) | DRSC18257 | -0.206 | 1.79 | 0.447
CG31650 (GeneID 326150) | DRSC03140 | -2.5 | -3.89 | 1.18
CG32679 (GeneID 318150) | DRSC17644 | -0.697 | 0.392 | –
loj (GeneID 38698) | DRSC09791 | -2.17 | 0.263 | –
Sptr (GeneID 31781) | DRSC18719 | -1.32 | -0.58 | -0.796
GILT2 (GeneID 42788) | DRSC14196 | 0.598 | 0.0181 | –
C3G (GeneID 31618) | DRSC17745 | -2.66 | -1.95 | –
C3G (GeneID 31618) | DRSC17929 | 0.00975 | 0.64 | –
C3G (GeneID 31618) | DRSC22329 | 0.696 | -2.25 | –
C3G (GeneID 31618) | DRSC23077 | -0.243 | -0.957 | –
CG11200 (GeneID 37301) | DRSC06060 | -0.908 | 0.736 | –
CG7557 (GeneID 39278) | DRSC10878 | 0.0326 | 0.086 | –
Chmp1 (GeneID 40036) | DRSC10401 | 2.09 | -0.546 | 1.25
CG32547 (GeneID 3346150) | DRSC19263 | 0.401 | 0.757 | –
CG32547 (GeneID 3346150) | DRSC19474 | – | -2.26 | –
CG32547 (GeneID 3346150) | DRSC19626 | -2.14 | -1.14 | –
